PMC5622306
These are yes or no findings as the source states them, for the method shown. Some binding calls cover weakened binding; strength is not graded here.

Chains of the proteins cited; added tags and fusions are not shown. Residues count along the entry.
UniProt Q9Y6W8, residues 21-199: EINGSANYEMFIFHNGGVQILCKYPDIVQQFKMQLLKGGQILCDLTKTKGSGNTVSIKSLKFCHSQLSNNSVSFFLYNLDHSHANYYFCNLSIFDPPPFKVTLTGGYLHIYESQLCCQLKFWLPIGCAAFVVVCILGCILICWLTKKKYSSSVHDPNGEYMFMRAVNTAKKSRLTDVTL
UniProt Q9JHJ8, residues 47-277: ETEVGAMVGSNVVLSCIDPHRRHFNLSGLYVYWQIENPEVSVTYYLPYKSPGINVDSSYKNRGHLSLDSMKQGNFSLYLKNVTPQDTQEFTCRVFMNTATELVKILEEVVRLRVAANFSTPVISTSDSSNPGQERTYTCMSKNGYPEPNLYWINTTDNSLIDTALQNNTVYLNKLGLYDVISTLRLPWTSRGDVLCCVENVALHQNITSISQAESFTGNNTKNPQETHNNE

Target: human ICOS receptor (inducible costimulator) on CHO cells (human) (UniProt Q9Y6W8)
Experiment: cell-based ligand-receptor blocking assay (HRP read-out on adherent cells); CHO cells expressing human ICOS in 96-well plates; ICOSL-hFc (20 µl at 450 ng/ml) preincubated 1 h with serially diluted anti-ICOSL VNAR, added to cells 1 h at 16°C in DMEM/F12 + 2% FBS; bound ICOSL-hFc detected with goat anti-human Fc-HRP; only the binder purified

- binding: binds
Substance: recombinant mouse B7-H2/Fc (mICOSL-Fc) (from UniProt Q9JHJ8 47-277) (Fc fusion)
